Reference: patent US20230348453A1, “HALOGENATED-HETEROARYL AND OTHER HETEROCYCLIC KINASE INHIBITORS, AND USES THEREOF” (iOmx Therapeutics AG, priority 2020, published 2023)

Test system: 320 wild-type protein kinases
Experiment: ProQinase Kinase Profiler single-point inhibition, selectivity score
Assay type: biochemical
Settings: 1 μM

For `Cc1nc(Nc2ncc(C(=O)Nc3c(Cl)ccnc3C)s2)cc(N2CCN(CCO)CC2)n1` [Compound B3, N-(4-chloro-2-methylpyridin-3-yl)-2-((6-(4-(2-hydroxyethyl)piperazin-1-yl)-2-methylpyrimidin-4-yl)amino)thiazole-5-carboxamide], the “Number of kinases inhibited to <5% residual activity” value was 30 kinases and the “Number of kinases inhibited to less than 1% residual activity” value was 13 kinases.
